The target in the assay is SCI1-L-TurboID fusion protein (STRIPAK complex interactor 1 fused to TurboID) (S. macrospora) (UniProt F7W428). Briefly: proximity labelling; BioID with SCI1-L-TurboID as bait in S. macrospora Δsci1; liquid SWG (50 nM biotin) 4 days at 27 °C, boosted with 10 µM biotin for 30 min; extract denatured in 4% SDS, biotinylated proteins enriched on Strep-Tactin Sepharose, SDS-PAGE, tryptic in-gel digest, LC-MS with label-free quantification; control: free L-TurboID strain diluted 1:6 with wild-type extract; four biological replicates.

Chains of the proteins cited; added tags and fusions are not shown. Lines headed by an entry give the natural chain unless they say otherwise; changes in a name come on top.
UniProt F7W428: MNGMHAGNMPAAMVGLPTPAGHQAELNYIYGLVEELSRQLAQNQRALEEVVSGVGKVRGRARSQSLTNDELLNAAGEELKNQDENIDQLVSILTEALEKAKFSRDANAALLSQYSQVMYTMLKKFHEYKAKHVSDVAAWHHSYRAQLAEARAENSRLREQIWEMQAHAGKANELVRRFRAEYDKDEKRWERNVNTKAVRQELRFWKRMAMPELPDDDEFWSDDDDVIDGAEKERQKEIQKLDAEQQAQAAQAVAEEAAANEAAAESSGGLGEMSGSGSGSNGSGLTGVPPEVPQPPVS
UniProt F7W245: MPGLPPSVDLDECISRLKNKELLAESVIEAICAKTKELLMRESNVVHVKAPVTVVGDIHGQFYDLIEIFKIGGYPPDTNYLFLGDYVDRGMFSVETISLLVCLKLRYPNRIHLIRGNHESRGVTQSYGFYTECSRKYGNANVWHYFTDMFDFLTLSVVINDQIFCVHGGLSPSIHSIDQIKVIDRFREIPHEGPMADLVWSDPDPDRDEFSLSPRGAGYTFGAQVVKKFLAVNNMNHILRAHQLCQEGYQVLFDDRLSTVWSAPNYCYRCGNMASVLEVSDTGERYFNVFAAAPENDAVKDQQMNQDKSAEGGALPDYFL

No constants are given. Whether binding was seen depends on the method and setting. In cells and extracts the contact can be indirect. Here binding means that the protein was enriched with, or labelled near, the bait; the list need not be complete.

On to SmPP2Ac1 (from UniProt F7W245) (enzyme), for which the binding entry is reported as “binds”.

B1: PRO11 (protein, UniProt Q70M86 1-845)
chain: MGTNGVHVSFGAGHEMGGVMGNGSGQPPATEYTLQGVMRFLQTEWHRHERDRNAWEIEKQEMRARIANLEGQARRADATQKALKRYVSILEKKVKEQSAALKSGGKEKGVEDEAEAEDNKTKLDRSALIQEKLRPNTKLSGAPNEAENVEIGPPDDESARNELKTFLDQCQAEFTYLMVTPANPQPPRESPPLPILDDFREGEALNQQLEQSYQRSQQSQIRDLLAQQAAAANATNVAAVQSQQQQPQQQQHAVGPRPQTNQPPKGYGELAQGAPMERSSRGQQLHDILKSGETPDWSASMQSQPVEEPTSALSKAPPMVRGDGREPAVPKSASTTDAWDFNESNFQDPNAMPQPTPQQSFSSRPDTDAFPSAENLTKSPNRGALSHRRKSSSGMARRRSAEHELSLGSLQQKAEGTMFKFRFGLRGHLDVVRTVIFSGGGSPGEPEICTAGDDGLVKRFHIPDRHIGQRNADGDLDVAADFTHRGHSGAVLSLASWSPSPNFSTGGRAQGDGWIFSGGQDATIRVWERGRVDPKATLDGHTDAVWALCVLPTNLGAIFGQTNSHGPPDRILLVSGAADGTVKVWAVSAPPQLTSPQPGPGRRGPGGRVRGNSMSSGSAFPSSPQPTTASNSPFHHTLVHTIKRANSEASPTCITALSPNGETFAVSYADAAIIVYDTRSGEEIGTMASLDTYDGTNNTAVNAVVATTVGLDQTQGPGGEDESGGGPTGGGRSMAGSGVEGTIISGHEDRYIRFFDANSGQCTYNMLAHPGSVSSLSLSPDGRELVSAGHDMSLRFWSLETRSCTQEMTCHRSMRGEGVCAVVWSQDGRWVVSSGGDGMVKVYAR
In the case of B1, the binding result is on record as “binds”.

Values taken from paper PMC9588061.
